Test results taken from the supplement of paper PMC10849652.
This is one part of the list.

Protein sequences, listed by entry. Tags and fused reporters are not part of them. Lines headed by an entry give the natural chain unless they say otherwise; changes in a name come on top.
UniProt O60518: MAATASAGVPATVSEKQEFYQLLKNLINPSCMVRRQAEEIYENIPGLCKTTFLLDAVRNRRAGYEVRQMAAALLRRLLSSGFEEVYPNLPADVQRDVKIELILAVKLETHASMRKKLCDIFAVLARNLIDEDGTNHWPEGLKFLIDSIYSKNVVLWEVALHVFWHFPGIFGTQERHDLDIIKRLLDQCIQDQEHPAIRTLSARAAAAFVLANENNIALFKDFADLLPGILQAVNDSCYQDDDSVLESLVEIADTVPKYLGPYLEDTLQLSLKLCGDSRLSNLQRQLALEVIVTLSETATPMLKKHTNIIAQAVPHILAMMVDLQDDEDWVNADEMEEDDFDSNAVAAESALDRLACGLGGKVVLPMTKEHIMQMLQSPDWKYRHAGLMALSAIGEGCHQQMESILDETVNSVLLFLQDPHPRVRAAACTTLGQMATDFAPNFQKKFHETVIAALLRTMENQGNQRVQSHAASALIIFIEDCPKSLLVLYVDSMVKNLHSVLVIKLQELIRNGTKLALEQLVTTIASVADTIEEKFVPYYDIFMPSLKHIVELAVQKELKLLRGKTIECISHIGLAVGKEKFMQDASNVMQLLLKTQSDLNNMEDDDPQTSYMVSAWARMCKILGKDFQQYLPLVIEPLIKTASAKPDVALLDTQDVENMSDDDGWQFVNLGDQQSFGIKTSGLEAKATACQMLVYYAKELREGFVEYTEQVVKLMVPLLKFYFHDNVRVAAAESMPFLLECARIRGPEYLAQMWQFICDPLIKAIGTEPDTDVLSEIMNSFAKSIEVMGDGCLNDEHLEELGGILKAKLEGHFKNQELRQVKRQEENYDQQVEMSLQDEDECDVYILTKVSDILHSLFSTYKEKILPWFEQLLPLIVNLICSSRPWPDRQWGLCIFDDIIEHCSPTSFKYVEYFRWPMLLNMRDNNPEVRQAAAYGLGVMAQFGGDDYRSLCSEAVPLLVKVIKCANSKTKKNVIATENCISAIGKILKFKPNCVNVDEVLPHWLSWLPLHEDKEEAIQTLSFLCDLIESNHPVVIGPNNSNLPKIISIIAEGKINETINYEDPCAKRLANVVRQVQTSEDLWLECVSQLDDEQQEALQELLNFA
UniProt Q06609, whole entry, looked up: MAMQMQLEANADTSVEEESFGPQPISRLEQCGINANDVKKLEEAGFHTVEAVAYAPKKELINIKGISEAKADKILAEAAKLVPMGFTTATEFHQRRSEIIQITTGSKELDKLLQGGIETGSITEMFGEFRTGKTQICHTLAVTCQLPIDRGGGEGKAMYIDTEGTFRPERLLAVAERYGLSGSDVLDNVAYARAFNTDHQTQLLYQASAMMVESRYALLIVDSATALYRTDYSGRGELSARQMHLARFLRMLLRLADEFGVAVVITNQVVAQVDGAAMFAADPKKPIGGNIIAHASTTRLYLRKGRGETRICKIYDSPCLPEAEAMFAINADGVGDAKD
UniProt Q6WKZ4: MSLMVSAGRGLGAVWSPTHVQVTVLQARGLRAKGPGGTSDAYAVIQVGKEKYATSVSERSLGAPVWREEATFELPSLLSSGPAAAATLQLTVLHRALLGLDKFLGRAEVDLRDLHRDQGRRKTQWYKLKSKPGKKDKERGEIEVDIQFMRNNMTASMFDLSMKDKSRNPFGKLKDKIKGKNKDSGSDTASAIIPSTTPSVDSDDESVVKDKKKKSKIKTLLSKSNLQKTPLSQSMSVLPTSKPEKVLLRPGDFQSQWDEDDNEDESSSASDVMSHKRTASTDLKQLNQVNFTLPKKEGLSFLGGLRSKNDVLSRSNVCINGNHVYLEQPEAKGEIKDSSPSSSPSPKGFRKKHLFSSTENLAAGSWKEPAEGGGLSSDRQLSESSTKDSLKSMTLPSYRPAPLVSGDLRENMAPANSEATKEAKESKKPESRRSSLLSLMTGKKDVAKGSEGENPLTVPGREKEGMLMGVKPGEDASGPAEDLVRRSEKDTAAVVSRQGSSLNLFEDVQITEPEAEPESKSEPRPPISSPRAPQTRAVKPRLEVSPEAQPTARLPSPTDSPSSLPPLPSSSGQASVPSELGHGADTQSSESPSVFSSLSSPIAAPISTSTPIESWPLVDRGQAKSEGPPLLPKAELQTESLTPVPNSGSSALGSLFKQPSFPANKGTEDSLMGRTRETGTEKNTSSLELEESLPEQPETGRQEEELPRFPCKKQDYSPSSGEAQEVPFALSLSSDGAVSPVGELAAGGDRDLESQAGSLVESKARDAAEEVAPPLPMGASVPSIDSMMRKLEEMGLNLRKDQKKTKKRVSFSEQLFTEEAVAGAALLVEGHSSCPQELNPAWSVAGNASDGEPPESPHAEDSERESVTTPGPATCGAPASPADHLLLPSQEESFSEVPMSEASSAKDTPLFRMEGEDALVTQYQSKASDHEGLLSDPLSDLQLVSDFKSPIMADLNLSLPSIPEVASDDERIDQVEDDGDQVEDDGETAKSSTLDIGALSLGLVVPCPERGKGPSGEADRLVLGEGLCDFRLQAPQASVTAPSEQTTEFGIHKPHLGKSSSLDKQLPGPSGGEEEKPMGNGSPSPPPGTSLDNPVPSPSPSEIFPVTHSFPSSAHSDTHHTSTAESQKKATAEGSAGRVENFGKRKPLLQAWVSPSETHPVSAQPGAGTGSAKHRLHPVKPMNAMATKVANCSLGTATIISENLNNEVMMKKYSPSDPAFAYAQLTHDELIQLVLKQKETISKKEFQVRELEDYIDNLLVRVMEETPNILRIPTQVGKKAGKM
UniProt P11233: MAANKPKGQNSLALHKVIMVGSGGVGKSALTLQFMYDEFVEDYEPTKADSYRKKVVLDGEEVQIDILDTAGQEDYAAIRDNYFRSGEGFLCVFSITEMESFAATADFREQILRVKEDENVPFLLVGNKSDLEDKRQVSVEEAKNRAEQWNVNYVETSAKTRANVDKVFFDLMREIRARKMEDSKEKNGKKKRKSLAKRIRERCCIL
UniProt O75771: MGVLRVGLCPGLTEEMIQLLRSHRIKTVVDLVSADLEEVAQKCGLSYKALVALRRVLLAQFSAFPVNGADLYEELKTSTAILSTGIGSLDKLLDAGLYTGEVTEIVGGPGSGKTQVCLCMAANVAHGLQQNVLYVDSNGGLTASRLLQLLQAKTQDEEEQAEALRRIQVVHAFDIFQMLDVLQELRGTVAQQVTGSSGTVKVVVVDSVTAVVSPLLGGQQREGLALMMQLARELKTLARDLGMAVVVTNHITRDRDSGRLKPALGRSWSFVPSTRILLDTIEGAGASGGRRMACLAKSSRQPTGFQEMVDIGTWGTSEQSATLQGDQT
UniProt Q96S21: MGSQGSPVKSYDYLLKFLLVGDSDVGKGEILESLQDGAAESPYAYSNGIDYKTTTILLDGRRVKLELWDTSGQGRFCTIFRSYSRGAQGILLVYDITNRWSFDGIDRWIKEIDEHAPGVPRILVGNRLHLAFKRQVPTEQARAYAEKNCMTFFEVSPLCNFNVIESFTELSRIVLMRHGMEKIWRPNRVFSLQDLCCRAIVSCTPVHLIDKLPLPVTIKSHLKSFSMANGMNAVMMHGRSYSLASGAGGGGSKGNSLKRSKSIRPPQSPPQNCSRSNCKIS
UniProt Q96EV2: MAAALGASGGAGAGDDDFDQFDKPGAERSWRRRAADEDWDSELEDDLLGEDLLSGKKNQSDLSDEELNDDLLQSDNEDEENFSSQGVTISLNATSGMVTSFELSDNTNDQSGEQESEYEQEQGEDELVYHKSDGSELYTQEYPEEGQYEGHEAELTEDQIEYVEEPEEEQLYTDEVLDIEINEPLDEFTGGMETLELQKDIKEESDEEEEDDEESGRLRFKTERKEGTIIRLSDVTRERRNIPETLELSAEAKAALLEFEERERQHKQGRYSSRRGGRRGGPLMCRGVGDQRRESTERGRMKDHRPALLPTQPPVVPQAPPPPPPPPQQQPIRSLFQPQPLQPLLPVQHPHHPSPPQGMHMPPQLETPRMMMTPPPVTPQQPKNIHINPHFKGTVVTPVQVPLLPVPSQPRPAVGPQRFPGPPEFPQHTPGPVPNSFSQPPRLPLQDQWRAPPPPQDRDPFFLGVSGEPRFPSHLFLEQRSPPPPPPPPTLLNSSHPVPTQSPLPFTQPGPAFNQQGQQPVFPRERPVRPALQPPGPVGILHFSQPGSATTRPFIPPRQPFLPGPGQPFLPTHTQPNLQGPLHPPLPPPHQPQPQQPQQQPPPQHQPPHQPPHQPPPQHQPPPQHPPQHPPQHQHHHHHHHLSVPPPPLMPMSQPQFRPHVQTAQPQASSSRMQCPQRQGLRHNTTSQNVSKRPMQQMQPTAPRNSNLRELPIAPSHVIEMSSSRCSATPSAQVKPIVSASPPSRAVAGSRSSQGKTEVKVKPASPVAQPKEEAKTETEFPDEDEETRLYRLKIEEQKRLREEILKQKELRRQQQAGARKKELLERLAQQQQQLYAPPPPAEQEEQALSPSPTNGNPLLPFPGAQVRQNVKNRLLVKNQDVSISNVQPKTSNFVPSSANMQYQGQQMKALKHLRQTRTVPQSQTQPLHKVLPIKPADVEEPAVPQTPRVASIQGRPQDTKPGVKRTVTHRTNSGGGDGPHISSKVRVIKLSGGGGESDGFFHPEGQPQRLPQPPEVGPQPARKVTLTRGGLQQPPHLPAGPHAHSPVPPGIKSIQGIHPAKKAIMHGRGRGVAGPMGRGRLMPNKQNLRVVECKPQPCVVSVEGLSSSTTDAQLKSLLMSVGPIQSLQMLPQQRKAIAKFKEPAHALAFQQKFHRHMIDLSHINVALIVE
UniProt Q16576, whole entry, looked up: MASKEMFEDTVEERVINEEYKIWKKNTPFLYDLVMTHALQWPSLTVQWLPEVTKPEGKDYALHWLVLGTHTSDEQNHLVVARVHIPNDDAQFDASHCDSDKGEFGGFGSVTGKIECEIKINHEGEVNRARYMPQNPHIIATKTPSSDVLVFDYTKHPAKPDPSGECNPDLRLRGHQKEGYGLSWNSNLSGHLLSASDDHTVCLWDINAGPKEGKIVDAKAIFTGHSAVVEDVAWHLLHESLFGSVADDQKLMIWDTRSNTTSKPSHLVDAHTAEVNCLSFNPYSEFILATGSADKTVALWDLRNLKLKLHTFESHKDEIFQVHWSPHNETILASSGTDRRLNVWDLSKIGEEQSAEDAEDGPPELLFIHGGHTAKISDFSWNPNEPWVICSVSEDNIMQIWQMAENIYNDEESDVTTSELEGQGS
UniProt Q8TBN0: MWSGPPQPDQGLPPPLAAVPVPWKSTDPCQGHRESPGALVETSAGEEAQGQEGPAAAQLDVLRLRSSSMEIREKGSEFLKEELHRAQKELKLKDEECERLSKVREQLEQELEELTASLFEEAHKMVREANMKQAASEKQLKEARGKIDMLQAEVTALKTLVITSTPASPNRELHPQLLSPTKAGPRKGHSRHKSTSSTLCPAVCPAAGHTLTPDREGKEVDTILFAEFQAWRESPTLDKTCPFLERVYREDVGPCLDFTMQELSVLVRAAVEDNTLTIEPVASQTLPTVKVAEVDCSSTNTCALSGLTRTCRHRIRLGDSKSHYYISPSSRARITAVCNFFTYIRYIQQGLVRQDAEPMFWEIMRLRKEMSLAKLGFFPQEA

Assays:
Assay in all cases: log2 fold change, soluble protein after heating vs DMSO (PISA); higher = thermal stabilisation; K562 cells, 10 uM, 30 min; active = over 0.2 and 3.5 SD of the protein, either way, in both replicates (recomputed)
saracatinib = compound: CN1CCN(CCOc2cc(OC3CCOCC3)c3c(Nc4c(Cl)ccc5c4OCO5)ncnc3c2)CC1 [saracatinib]
How it was run: (§1)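 K562 cells at 2×10^6 cells/mL were given 10 μM compound for 30 min. Aliquots then went through 3 min of heating across 48°C-58°C, were pooled, and were extracted in PBS with 0.5% NP-40 at 4°C, and the supernatant after 21,000xg for 90 min was quantified by TMTpro 16plex LC-MS/MS with channel sums equalised. Thermal stability relative to control samples, from duplicates, is given as log2 fold change.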

sotrastaurin = compound: CN1CCN(c2nc(C3=C(c4c[nH]c5ccccc45)C(=O)NC3=O)c3ccccc3n2)CC1 [sotrastaurin]
How it was run: as §1

Tubastatin A = compound: CN1CCc2c(c3ccccc3n2Cc2ccc(C(=O)NO)cc2)C1 [Tubastatin A]
How it was run: as §1

[1] = compound: CNC(=O)C1=CC=CC=C1NC2=NC(=NC=C2Cl)NC3=C(C=C(C=C3)N4CCOCC4)OC
How it was run: as §1

[2] = compound: CNc1nc(-c2ccc3c(N)n[nH]c3c2)cc(N2C[C@@H](C(=O)NC3CCCCC3)CC[C@H]2C)n1
How it was run: as §1

[3] = compound: COC1=CC=C(C=C1)CN2C=CC3=C2C=C(C=C3)C(=O)NO
How it was run: as §1

filanesib = compound: CON(C)C(=O)N1N=C(c2cc(F)ccc2F)S[C@@]1(CCCN)c1ccccc1 [filanesib]
How it was run: as §1

zotarolimus = compound: CO[C@H]1C[C@@H]2CC[C@@H](C)[C@@](O)(O2)C(=O)C(=O)N2CCCC[C@H]2C(=O)O[C@H]([C@H](C)C[C@@H]2CC[C@H](n3cnnn3)[C@H](OC)C2)CC(=O)[C@H](C)/C=C(\C)[C@@H](O)[C@@H](OC)C(=O)[C@H](C)C[C@H](C)/C=C/C=C/C=C/1C [zotarolimus]
How it was run: as §1

idasanutlin = compound: COc1cc(C(=O)O)ccc1NC(=O)[C@@H]1N[C@@H](CC(C)(C)C)[C@](C#N)(c2ccc(Cl)cc2F)[C@H]1c1cccc(Cl)c1F [idasanutlin]
How it was run: as §1

alisertib = compound: COc1cc(Nc2ncc3c(n2)-c2ccc(Cl)cc2C(c2c(F)cccc2OC)=NC3)ccc1C(=O)O [alisertib]
How it was run: as §1

[4] = compound: COc1cc2nc(-c3cc(F)ccc3O)nc(N[C@@H]3CNC[C@H]3C(C)(C)O)c2cc1OC
How it was run: as §1

gefitinib = compound: COc1cc2ncnc(Nc3ccc(F)c(Cl)c3)c2cc1OCCCN1CCOCC1 [gefitinib]
How it was run: as §1

[5] = compound: COc1cccc2cc(-c3nc([C@H]4CC[C@H](C(=O)O)CC4)n4ncnc(N)c34)[nH]c12
How it was run: as §1

lapatinib = compound: CS(=O)(=O)CCNCc1ccc(-c2ccc3ncnc(Nc4ccc(OCc5cccc(F)c5)c(Cl)c4)c3c2)o1 [lapatinib]
How it was run: as §1

rucaparib = compound: CNCc1ccc(-c2[nH]c3cc(F)cc4c3c2CCNC4=O)cc1 [rucaparib]
How it was run: as §1

encorafenib = compound: COC(=O)N[C@@H](C)CNc1nccc(-c2cn(C(C)C)nc2-c2cc(Cl)cc(NS(C)(=O)=O)c2F)n1 [encorafenib]
How it was run: as §1

defactinib = compound: CNC(=O)c1ccc(Nc2ncc(C(F)(F)F)c(NCc3nccnc3N(C)S(C)(=O)=O)n2)cc1 [defactinib]
How it was run: as §1

[6] = compound: COC(=O)[C@H](CCSC)NC(=O)C1=C(C=C(C=C1)NC[C@H](CS)N)C2=CC=CC=C2
How it was run: as §1

pictilisib = compound: CS(=O)(=O)N1CCN(Cc2cc3nc(-c4cccc5[nH]ncc45)nc(N4CCOCC4)c3s2)CC1 [pictilisib]
How it was run: as §1

alvocidib = compound: CN1CC[C@H](c2c(O)cc(O)c3c(=O)cc(-c4ccccc4Cl)oc23)[C@H](O)C1 [alvocidib]
How it was run: as §1

| Target | log2 fold change (saracatinib) | log2 fold change (sotrastaurin) | log2 fold change (Tubastatin A) | log2 fold change [1] | log2 fold change [2] | log2 fold change [3] | log2 fold change (filanesib) | log2 fold change (zotarolimus) | log2 fold change (idasanutlin) | log2 fold change (alisertib) | log2 fold change [4] | log2 fold change (gefitinib) | log2 fold change [5] | log2 fold change (lapatinib) | log2 fold change (rucaparib) | log2 fold change (encorafenib) | log2 fold change (defactinib) | log2 fold change [6] | log2 fold change (pictilisib) | log2 fold change (alvocidib) |
| --- | --- | --- | --- | --- | --- | --- | --- | --- | --- | --- | --- | --- | --- | --- | --- | --- | --- | --- | --- | --- |
| RABGAP1L isoform 5 (UniProt Q5R372) | inactive: -0.027 | inactive: 0.017 | inactive: -0.056 | inactive: -0.014 | inactive: -0.071 | inactive: 0.117 | inactive: 0.108 | inactive: -0.008 | inactive: 0.05 | inactive: -0.071 | inactive: 0.065 | inactive: -0.097 | inactive: 0.007 | inactive: -0.027 | – | – | – | – | – | – |
| RANBP6 (UniProt O60518) | inactive: -0.061 | inactive: 0.225 | – | – | inactive: -0.151 | inactive: -0.039 | inactive: -0.243 | – | – | – | inactive: 0.11 | – | – | inactive: 0.166 | inactive: 0.168 | inactive: 0.112 | – | – | – | – |
| RAD51 (UniProt Q06609) | inactive: -0.013 | inactive: 0.004 | inactive: 0.099 | active: 0.337 | inactive: -0.011 | inactive: -0.057 | inactive: 0.003 | inactive: -0.034 | inactive: -0.072 | inactive: 0.041 | inactive: -0.022 | inactive: -0.07 | inactive: 0.012 | inactive: -0.024 | inactive: -0.035 | inactive: 0.005 | inactive: 0.027 | inactive: -0.041 | inactive: -0.02 | – |
| RAB11FIP1 (UniProt Q6WKZ4) | inactive: 0.021 | inactive: -0.094 | inactive: 0.005 | inactive: 0.045 | inactive: -0.043 | inactive: -0.024 | inactive: 0.004 | inactive: 0 | inactive: -0.015 | inactive: 0.368 | inactive: -0.03 | inactive: -0.009 | inactive: 0.007 | inactive: 0.01 | inactive: -0.012 | inactive: 0.052 | inactive: -0.16 | inactive: -0.019 | inactive: -0.107 | – |
| RALA (UniProt P11233) | active: 0.203 | inactive: 0.05 | inactive: -0.008 | inactive: -0.045 | inactive: 0.086 | active: 0.348 | inactive: -0.025 | inactive: 0.035 | inactive: -0.019 | inactive: -0.066 | inactive: -0.066 | inactive: 0.004 | inactive: 0.053 | inactive: 0.025 | inactive: 0.002 | inactive: 0.033 | inactive: 0.017 | inactive: 0.004 | inactive: -0.099 | – |
| RAD51D (UniProt O75771) | inactive: 0.043 | – | inactive: -0.023 | inactive: -0.113 | inactive: 0.098 | inactive: 0.001 | – | inactive: -0.313 | inactive: -0.047 | inactive: -0.069 | inactive: 0.031 | inactive: 0.067 | inactive: 0.03 | inactive: 0.048 | inactive: -0.083 | inactive: 0.033 | inactive: 0.051 | inactive: -0.033 | inactive: 0.423 | inactive: -0.036 |
| RAF1 isoform 2 (UniProt P04049) | inactive: -0.029 | inactive: -0.167 | inactive: -0.036 | inactive: 0.078 | inactive: 0.176 | inactive: 0.035 | inactive: 0.085 | inactive: -0.024 | inactive: -0.102 | inactive: 0.139 | inactive: -0.246 | – | inactive: -0.067 | inactive: 0.051 | inactive: 0.125 | active: 0.737 | inactive: -0.075 | inactive: -0.069 | inactive: 0.207 | – |
| RAD50 isoform 2 (UniProt Q92878) | inactive: 0.012 | inactive: -0.024 | inactive: -0.025 | inactive: 0 | inactive: 0.006 | inactive: -0.002 | inactive: 0.008 | inactive: 0.036 | inactive: -0.016 | inactive: 0 | inactive: 0.002 | inactive: 0.031 | inactive: 0.007 | inactive: -0.002 | inactive: 0.006 | inactive: 0.008 | inactive: -0.103 | inactive: -0.019 | inactive: 0.02 | – |
| RAB40C (UniProt Q96S21) | inactive: 0.228 | inactive: 0.102 | inactive: 0.12 | inactive: 0.125 | inactive: 0.129 | inactive: -0.055 | inactive: -0.14 | – | inactive: 0.068 | inactive: 0.012 | inactive: -0.099 | inactive: -0.388 | inactive: 0.357 | inactive: 0.001 | inactive: -0.036 | inactive: 0.025 | inactive: -0.084 | inactive: 0.056 | inactive: 0.056 | – |
| RBM33 (UniProt Q96EV2) | inactive: 0.071 | inactive: -0.017 | inactive: 0.007 | inactive: -0.021 | inactive: -0.044 | inactive: 0.134 | inactive: 0.013 | inactive: 0.03 | inactive: 0.042 | inactive: -0.031 | inactive: -0.078 | inactive: 0.035 | inactive: -0.028 | inactive: 0.008 | inactive: -0.017 | inactive: 0.02 | active: -0.273 | inactive: 0.03 | inactive: -0.044 | – |
| RBBP7 (UniProt Q16576) | inactive: 0.048 | inactive: 0.037 | – | inactive: -0.033 | inactive: -0.021 | inactive: -0.008 | inactive: -0.062 | – | inactive: -0.025 | inactive: 0.002 | inactive: 0.161 | inactive: 0.036 | inactive: 0.026 | inactive: -0.032 | inactive: -0.008 | inactive: -0.007 | – | – | – | – |
| RAB3IL1 (UniProt Q8TBN0) | inactive: 0.007 | inactive: -0.02 | inactive: -0.02 | inactive: 0.023 | inactive: 0.001 | inactive: -0.006 | inactive: -0.003 | inactive: -0.023 | inactive: 0 | inactive: -0.115 | inactive: 0.07 | inactive: 0.033 | inactive: 0.038 | inactive: 0.001 | inactive: -0.005 | inactive: -0.03 | inactive: -0.042 | inactive: -0.022 | inactive: -0.019 | – |

Taken from above:
log2 fold change (rucaparib) with RAB11FIP1 (UniProt Q6WKZ4) is entered as inactive: -0.012
log2 fold change (Tubastatin A) with RAD51 (UniProt Q06609) is entered as inactive: 0.099
